Here are results for ten molecules from PMC10434240.

Sequences of proteins named here, by UniProt entry; tags and fusion partners are left off.
UniProt P90623: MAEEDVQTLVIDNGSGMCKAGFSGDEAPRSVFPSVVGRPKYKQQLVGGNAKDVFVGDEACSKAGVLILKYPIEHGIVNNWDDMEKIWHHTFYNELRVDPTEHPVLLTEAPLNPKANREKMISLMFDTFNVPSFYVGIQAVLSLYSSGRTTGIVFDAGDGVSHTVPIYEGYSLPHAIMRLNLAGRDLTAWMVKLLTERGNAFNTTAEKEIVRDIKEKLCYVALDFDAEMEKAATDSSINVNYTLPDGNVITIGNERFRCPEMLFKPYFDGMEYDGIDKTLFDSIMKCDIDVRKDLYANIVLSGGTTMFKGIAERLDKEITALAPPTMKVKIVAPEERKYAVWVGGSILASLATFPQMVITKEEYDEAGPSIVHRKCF

Results are given in words; binding and its absence hold for the method and conditions named. In cells and extracts the contact can be indirect. These calls come from enrichment with a bait or labelling near it, and not all partners need be listed. Tags and fused reporters may be left off the sequences shown.

This assay concerns the target HA-TvActin (Trichomonas vaginalis) (UniProt P90623). Put plainly: affinity purification with mass spectrometry; HA-TvActin immunoprecipitated with anti-HA agarose beads from lysate of transgenic TH17 trophozoites (1% Triton X-100, 5 mM EDTA in TBS, 4°C overnight); SDS-PAGE, LC-MS/MS, label-free emPAI.

B1: Uncharacterized protein (TVAG_098000) (protein, UniProt A2E2D0 1-1315)
chain: MISSYGTVLFQKTIDVLVSQRVTDKQPFIESILQSPTVDEYILKIYERSNSLVDQVQGEKLFLLALLLTSKHYPESAEKATEYLNQIAKYTRILSNYDDYQLYNEVFFELVTKANPNDTEITKHQLTLATLSTKTQQYCGDAVKLAYVEYPQTRESVHALAMAIENLDLNPEGGLESELKAIMQHLTNPEELLADVNKFLHSETQVDVALELIHNLLEKVDAETKVAIFKKVTPELPYKFSSCSPRTLMYIAKILNLMPIPEEYNELDKFNIAVQLSFAAPNLSGAITSFDDPLVPMLIEFTQKRKDAPTFEIVVKSLAPYGVIIYAVNFGIFASYPDEVKNALKEPKFIIEAIHYLLKNNAVTDDTIQIVAEAYINALKSDILNDEEQLKKCVEILPQLNQFHAILLKLFLENCAYINNAIVVRKFCEFLIKSELAASEQFPLETIGTLARYLIIDEEDTQTTATVSKFLGILANMESIPCPTTANNIATYYCSEGDRMAQYQAYLLKQAIAFPNTGYEALAAGTPKLTDKNTTILTKNIENSYANQRLYSQYFISLSRNNVTQALEQFKVAVNDVVPALIQFTKPPPPKEFYDAAFFTILWLVQNVVKEEKDIKLLFAITRIAIPGPAMTDQCADSVIKTLKALITLNKGSIPDNVVKKILDSSFPEFIPIMFAAIGKERIDDAIITIIQHAMTKPFGYNYSEQLQAILNAGKKAKVLERFFQRFARLADRNDCIKLLELMAEVAKVARHLSIPYTSTKNDHEWIEIIIPYSIHVDEKIRGYALTILKNVYEVGCSVETSGLAHSEITTIVHTLWSEIVKRLDRDCILRVFKFCAKNLDKSEAASIFAAAVIDHRPDCIDEKDFDALFLLEANTFMFNNIFESLKKYSEDNKRRVVAKMFAIGYRPMTLSVFRAMIKEPDFVKAIFIEITAQQNHDKFLEIVEAFYETSEFDPVIFLIVLSFYSVQKQTRRKVKGLQSLMSSVLSQQIIKSTIINPQNLAIEDDLHLALKDIAFKTYNLSVDQLKAIAENAEAYVKSGEDMTSMTFGTLFAILAAQFAVLKTNQDLCLTFYKLFIMSIENATTHTAGFILAAFNQVTQEDIIEQISHEYKQSIIVHAAAALAETALSEKHIDDNLSLMCCVFSKFDEKAEVAEKVYVALDAASNKIAHRKDMMEALLTICHLQKVKFTEKGIARPAAILLRCFSERKDIAEIAYNILKEITEKETVEEVIFGTCENIERLPNVANNCVLSCTVPMITERTIEILHALAKFQTRIYSKAAGFYENLYPIAFKVIEEGDAELVDKATCLLKSFEK
For B1, the binding entry is on record as “binds”.

B2: V-ATPase_H_C domain-containing protein (protein, UniProt A2FS41 1-433)
chain: MQRSKHPLFVRLEQRDAIFRDGNPASLSLESENAEDCKAFVSLFQASPENQLTEFVKNKNHAEIFTKLLSTRSDPAPLNLLCAFIDRLLDLDFNATIGALMANSQKLSEGCAKILIGHTADHLNQAFLVRTILLLLGTIISERDTKATTEAFQTFTRTALSLLSAKLNEASIALECVKRALRSEQFRSTFISEKGTKLLLDLLTQAQKASNTDSLYHILFCIWGISFSAEGAGQLSEGDFIPILTKLLSTVQPEREELVRLLTFIIQQLNPSIVFIENAYDYDILRLVRNLQTKHYVDPELTTEIAKVADDMAQALKKLSLWDKYVREVKSGKLKNTISHSSELFWKANVERFGENNFAVLIALRDLLKSDDEETVTVACHDIGEYVHRHPLGRIKVEEIHAKEMIMELLINKNQNIVSQALRTTQLLLLRNN
As for B2, the binding result is “binds”.

B3: DEAD/DEAH box helicase family protein (protein, UniProt A2D755 1-1123)
chain: MRPSNENQQNSNNSSNFQDGWQGNANYQQNSRMNPDNQDNQNYSQGSRFQNYSSRGESPATFSRNFPANSNYENSGDNQGFQPPSRNGSGFGNTANGSDRNTPINTNSGQSGWNQNFDQNPPNQNDFRSDQDRNSSNYTPNGNLNSNFGDNMNPNADQNQNGPQNDSNQWNSNRNTNSNDNWNENRNQSQNWNDQRGYNDDMNQNRNSNWNGNDNWNSNDNFRNDNPNGNGNRGWNDDRSGNWVGNDNWNGNQQNYDNQNGDWNRNGNWNDRNGNWNRNDDQGNYNRWDDRGNQNWNDRNWNQNGNWDQNRDNWNGNGPNGNWNRNDQWDDRNGNWNRSDRWNGNNDNWNGNQNRNYNDWNGNSNNGWNDNSNSNGNWNDNGNWNQNRNGFDNDNGNWNGNGNGNWNGNQNRNWNDNGNGNWNDNGNGRNDWNDNGNGNMNGNQNGNWNDNSNGNWNGNDNGNDRNGWNDNGNGKGNWNDNGNGDRNRDFNGNMNGNNWNDNGNGNWNDNSNRNWNDNGNGGWNRNSNDNMNGNNWDNNGNGNWNGNGNGNWNDNGNGNWNGNDNGNWNGNGNGNWNDNGNGNWNGNGNGNWNDNGNGNWNDNGNGNMNGNNWDNNGNDNWNQNGNGNNWNDDGNGNFGPPDNDDMMGNDYNGNGNGNMNGNDNGNMSFGGSSNSMKIDRDMNAKLCQLAEQIMNLPVEDPVPDIAHMNISMPEVSPEEFKDFTETYNIKLISDNPGPQTLFEFSPNFLDENTLSNIKKLEYTQPTDIQKIAIPIAYAGRDLIGIAKTGSGKTASYIIPAIKHVMLQNGREGPHVLIIAPTKELAQQIEIKANQLLENSPIKAVAIYASPNRREQINAVKKADIVIATFGRLLDFMSSNFVKLNGIGMVVIDEADNILKNDNQQQLGAILKHVPIDSQYLMWSASWIDEVRDLAEQYLKNYIKIVVDAFELTVNKDIKQIIIRKEGNPIIQVEEIIKKILADSKSDRIKILIFVNTSDKIDKTCDILNMEKVIKCMPIYSRLPPEERNATMKKFAEMKEPCALISTNLMSRGVELDVNYVIQMEIKDQFNEYVNRIGRTGRAGATGVAISLYDDNKNSAIRSDLIEYLKRAEQDVPDFLSSDY
In the case of B3, the binding result is recorded as “binds”.

B4: Coronin (protein, UniProt A2EIJ3 1-436)
chain: MTASPYRHVYAEVAKVDKSYQEVNISTTSVDTNLLAANYRYVAYPVETSGGGLFAVLPANGYGKVGTTNSVFRGHTGGVLDVDFNPFNDNIIASAAEDATLRVWQIKFNGTDVEKQNESLAVMKGHSRRVQRLTWNPAVNGAIATFGAENSVKVWDVAKAQCACTFKPGKDSLLDINWNQNGNLLCYPMKDKKLHVLDIRANTETFAVPSHPGLRGGRAVFYDKLNMVATTGFSASSGRQVAVRDIRNPEKPLAQLDIDSNNGILAPFVDEDLGVLILFSRGDALIRFYDLQSAENPLVQCNSFQNKEAVRAFARAPKYCVDTNVCEIDRFYVINQAKQLQTTQVIIPRKNAEIFQDDIYPETMKPVPGVEFDDWKGGKEPTFQKFSLENGYTPADGPAFSVTAAPEETFESLKAENTKLKARVAELEAEIAKLKK
On to B4, for which the binding result was “binds”.

B5: H^+-transporting two-sector ATPase (protein, UniProt A2ED49 1-610)
chain: MFTTKEANKQEQLRGQVYSVSGPVVVAENMTGAAMYELVKVGSDNLVGEIIQLEHDTATIQVYEETSGLTVGDSVIGTGKPLSVLLAPGLMTNIYDGIQRPLKDISDQSHSVFIPRGVSCDPIDLKKEWSFKPANFKEGDNVTGGDIIGYVNETSMIEHRIMLPPKACGKVKYIAEAGSYDVLHPVIGVEFDGKVTEYPILQEWPVRTPRPYAEKLVADFPLITGQRVLDCLFPVVQGGTCAIPGAFGCGKTVISQALSKYSNSDAIIYVGCGERGNEMAEVLMEFPELKVEIQGVEHPIMDRTTLVANTSNMPVAAREASIYTGITLAEYYRDMGYNVTMLADSTSRWAEALREISGRLAQMPADSGYPAYLGTRLASFYERAGRVSCYGNPHRSGSVSIVGAVSPPGGDLAGDPVTSATLQVVQVFWGLDKKLAQRKHFPSVSWTLSYSKYDDILRPYFVQFDPDFPNLRTEVRQILQEEQELSEIVQLVGKDSLAEPDKLTLEVARMVRDDFLQQNSYTPYDRVSPMWKTFWMLKNMMHFNDLARHILTESGEKRVTYEAIANHMSAEIQGLIRMKFTDPADGKEQCIENLRKLYQQIEDKFRTFSD
Regarding B5, the binding entry is listed as “binds”.

B6: HTH Myb-type domain-containing protein (protein, UniProt A2ELI6 1-98)
chain: MEYGSKWTYIANFFPGRTDINLKNRWQKFKNQTTVVKSQEDNILRKENDYGVKAQEENKMRDGSVAALVNPQESEICFYEWLNSPEGAEEFFISNVSK
Turning to B6, the binding entry is listed as “binds”.

B7: Tr-type G-domain-containing protein (protein, UniProt A2ECS2 1-841)
chain: MVNFTVAQIREVMNKRHNIRNLSVIAHVDHGKSTLTDSLIARAGIISQENAGEMRFTDTRPDEQERCITIKSTGVSLYYTMPKEDLPEDNVDNGFLINLIDSPGHIDFSAEVTAALRVTDGALVVVDCIEGVCVQTETVLRQALSERIKPVVIINKIDRSLLELNAEPEDMYQTYTKSIDMVNVIIATYTDENGPMGDITVSPAKGTVAFGSGLHSFGFTVTKFAKIYAARFGVPVQKLIPQLWGERFYDPISKCFISHATNEKGQALERSFCQFILKPIVSLSRAIMNGEKDKYTDMFKKLNVKLHDDEIHKEGRELLSAVYRRWIPMSEALLEMIVLHLPSPVKAQAYRAETLYTGPLDDACAKAIRACDPNGPLMLYVSKMVPTTDKGRFYAFGRVFSGTVATGQRVRVMGANYIPGGKDDIHVTNIQRTVLMMGRKVENLQDCPCGNTIGLVGIDQYLVKSGTISDHDDACPIKAMKFSVSPVVRVAVEPKIAQDLPKLVEGLNRLAKSDPCVQVTHEETGEHIIAGAGELHLEICLKDLEEDFAGVPITRSPPVVSFRETVQKLSSCVCMSKSANKLNRLMCQAEPIADNLLKAIEAGDVNPRMDVKTRAKILQNDFGWEQNDARRVWSFGPDSSGPNLLVDTTKSAEYLQEVKEHFISSFQWATKLGVLAEEPLRGVRFNVVEVFLHADAAHRNGGQMVPTGRRVLYASEYTAEPTLVEPVYLCEISAPISVCGGVHAILSKRRGRAFDQTQRDGTPLMNIKAYLPVMESFGFDKDLRGATSGQAFPQMIFDHWEPLEGDPFHAGNGLYEAIKVVRKRKGLSEEVPPLDRYLDKL
Take B7: the binding entry was “binds”.

B8: Actin-like protein 3, putative (protein, UniProt A2E0V9 1-420)
chain: MSTPTTPPVIIDVGTGYTKMGYANNTRPNFIIPTLHAGRDLSKVTAAQMVGTEDLDFYIGEEGIGKTPTYNPINIMKHGQVDDWTKMEQFWEQCLFKYLRCEPEDHAILLTEPPLNSPDNREYTAEVMFETFNVPYLYIGMQAMLAIAASWTNKSAHTLTGCVVDSGDGVTHVIPVVEGYPISNAIVHVPVAGREMTQFIADFLKDREPQVPAEDRMEAARNIKERYCRVAKHPSATFAMFDADRAKYIETYTGISSKSGKPYTCEVGYERFLAPEVWFSPELVSNEYTTPISVLIDRAIQMSPITDRKKLYNNIVLSGGSTTYKGLAKRLQADVQALVDARLEDNARRASKASGTKVEANKIPVNIVEHKRQQYAVWYGGAMLASTGSAFYAKCHSKAMYDEYGPSIARASTMFGASAV
For B8, the binding entry is “binds”.

B9: Ribosomal protein S3Ae, putative (protein, UniProt A2DSV0 1-247)
chain: MGASKQQRPKTSKKIKQDSFIKKEWRHVLVPAYFTGKRDIGVTVSNKCARGRVPMDYVNNRVWELSHADMVNDLSHAYRLFSWRSIAAGSEVYTQFAGMRLTHDKLDSIMRKYRTMIDASVDAKTADGFILRLFTIGFTKKLANSHKNHTYANSHKARQVRDVMIKALTDACEANGVEQLCKDFVDEKIENEIVDKCKQICQIESVYITKVKVIKAPALSNEQVKTLKISKDAAQLSLAPTERPTEE
Consider B9, for which the binding result is given as “binds”.

B10: Histone H2A (protein, UniProt A2DHC5 1-139)
chain: MPAKKGVKKTATKTAVDGERQHPKTRSSRAGLQFPVGRLHRFLREGRYGERVGAGAPVFMAAVLEYLTVEVLELAGNAARDNKKTRISPRHIMLAVRNDEELNQLLSNITIASAGVVPHIHKVLLGNPKKGKDASQTQE
For B10, the binding entry is “binds”.
